According to patent publication US20190010531A1, “CELL CULTURE PROCESS FOR MAKING A GLYCOPROTEIN” (Regeneron Pharmaceuticals, Inc., priority 2017, published 2019):
Read-outs that look alike come from different tables or passages of the source.

Key:
[1] = system: CHO cells expressing a trap protein (receptor-Fc fusion protein, VEGF-trap)
[2] = system: CHO cell production of rilonacept; details: FIG. 5
[3] = system: CHO cells expressing a trap protein (receptor-Fc fusion protein, VEGF-trap); experiment: Glycan analysis (HPLC, fluorescent anthranilic acid tags) of VEGF-trap production lots versus soy hydrolysate ornithine content; assay type: cell-based; details: aflibercept, FIG. 4
Procedure: More specifically, ˜90% of production lots cultured in medium comprising selected soy hydrolysate meet FDA production criteria. In contrast, only 57% of production lots cultured in medium comprising soy hydrolysate having more than 5 mg/L ornithine meet FDA production criteria (area under the curve for a specific N-glycan peak).
Each production lot was also compared (with respect to glycan profile) to a reference standard which represents a therapeutically acceptable batch of protein for the exemplary VEGF-trap protein. Representative glycan analysis is shown in Table 4 for protein lots produced from cells cultured in medium supplemented with soy hydrolysate resulting in final concentration of ornithine between 0.5 mg/L and 2.0 mg/L. Compared to the reference, each produced trap protein comprises a consistent glycan profile having peaks within an acceptable range (75% of lots analyzed).

NCCC[C@H](N)C(=O)O [ornithine, Ornithine]
Al N-Glycan relative amount (% area under the curve) ([1]; 1.6 mg/L ornithine, 0 mg/L citrulline): 12.0 % area under the curve | Al N-Glycan relative amount (% area under the curve) ([1]; 1.6 mg/L ornithine, VEGF-trap from CHO cells): 12.5 % area under the curve | Al N-Glycan relative amount (% area under the curve) ([1]; 6.6 mg/L ornithine, VEGF-trap from CHO cells): 9.8 % area under the curve | Al N-Glycan relative amount (% area under the curve) ([1]; 31.6 mg/L ornithine, 0 mg/L citrulline): 8.8 % area under the curve | Al N-Glycan relative amount (% area under the curve) ([1]; 31.6 mg/L ornithine, VEGF-trap from CHO cells): 9.3 % area under the curve | correlation of ornithine in soy hydrolysate with final glycoprotein titer ([2]; 16 soy hydrolysate lots): negative correlation | correlation of ornithine concentration in soy hydrolysate with accumulation of lactate in media [2]: positive correlation | correlation between level of ornithine in soy hydrolysate and glycoprotein quality (A1 N-glycan levels) [3]: strong negative correlation
